Measured values published in the supplement of paper PMC12819154, “High-throughput peptide-centric local stability assay extends protein–ligand identification to membrane proteins, tissues and bacteria” (Nature Structural & Molecular Biology, 2025).
This is one part of the list. Most entries show no effect beyond the scatter of the controls.

Protein sequences, listed by entry. Tags and fused reporters are not part of them. Lines headed by an entry give the natural chain unless they say otherwise; changes in a name come on top.
UniProt Q16877: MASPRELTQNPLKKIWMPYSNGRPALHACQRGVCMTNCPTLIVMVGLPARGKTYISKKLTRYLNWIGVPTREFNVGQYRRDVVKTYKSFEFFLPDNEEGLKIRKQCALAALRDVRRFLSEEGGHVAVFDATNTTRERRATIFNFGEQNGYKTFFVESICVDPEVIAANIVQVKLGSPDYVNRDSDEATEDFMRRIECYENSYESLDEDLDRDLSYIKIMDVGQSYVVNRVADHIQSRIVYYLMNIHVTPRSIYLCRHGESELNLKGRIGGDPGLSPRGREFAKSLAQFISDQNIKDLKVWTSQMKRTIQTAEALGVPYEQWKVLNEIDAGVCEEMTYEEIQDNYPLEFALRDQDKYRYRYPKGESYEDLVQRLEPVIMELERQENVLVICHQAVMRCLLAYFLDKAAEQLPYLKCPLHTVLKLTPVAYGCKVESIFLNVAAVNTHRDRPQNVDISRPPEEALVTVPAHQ
UniProt Q15361: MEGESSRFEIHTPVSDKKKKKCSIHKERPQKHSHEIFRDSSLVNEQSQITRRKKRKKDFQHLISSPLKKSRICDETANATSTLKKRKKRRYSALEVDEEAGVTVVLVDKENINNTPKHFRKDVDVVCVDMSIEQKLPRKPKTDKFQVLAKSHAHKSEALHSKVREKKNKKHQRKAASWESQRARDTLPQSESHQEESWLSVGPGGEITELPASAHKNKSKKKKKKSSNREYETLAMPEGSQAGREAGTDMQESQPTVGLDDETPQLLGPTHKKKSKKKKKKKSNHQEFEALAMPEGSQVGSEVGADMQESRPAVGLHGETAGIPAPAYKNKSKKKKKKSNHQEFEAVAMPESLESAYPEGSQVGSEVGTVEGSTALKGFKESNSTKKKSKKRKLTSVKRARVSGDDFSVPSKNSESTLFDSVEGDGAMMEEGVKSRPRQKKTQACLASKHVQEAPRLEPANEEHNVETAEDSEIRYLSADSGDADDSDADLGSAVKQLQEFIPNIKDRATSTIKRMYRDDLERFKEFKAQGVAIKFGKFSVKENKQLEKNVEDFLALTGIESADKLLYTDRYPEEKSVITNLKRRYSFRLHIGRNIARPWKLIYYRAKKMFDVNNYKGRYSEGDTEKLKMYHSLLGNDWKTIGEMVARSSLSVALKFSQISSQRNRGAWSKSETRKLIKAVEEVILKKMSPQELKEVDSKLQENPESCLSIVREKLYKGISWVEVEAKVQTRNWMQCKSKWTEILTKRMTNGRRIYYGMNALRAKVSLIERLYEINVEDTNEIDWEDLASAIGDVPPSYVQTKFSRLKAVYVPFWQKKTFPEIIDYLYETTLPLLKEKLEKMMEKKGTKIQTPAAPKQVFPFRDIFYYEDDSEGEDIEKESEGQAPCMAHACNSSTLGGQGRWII
UniProt Q15274: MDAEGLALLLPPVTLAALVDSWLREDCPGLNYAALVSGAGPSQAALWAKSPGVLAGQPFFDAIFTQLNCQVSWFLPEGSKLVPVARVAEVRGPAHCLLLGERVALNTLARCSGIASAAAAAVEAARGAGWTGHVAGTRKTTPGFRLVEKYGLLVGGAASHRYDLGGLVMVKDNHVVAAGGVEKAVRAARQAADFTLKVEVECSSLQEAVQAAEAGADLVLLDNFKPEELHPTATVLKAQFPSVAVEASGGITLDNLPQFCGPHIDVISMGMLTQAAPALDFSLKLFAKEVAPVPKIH
UniProt Q2VIR3, whole entry: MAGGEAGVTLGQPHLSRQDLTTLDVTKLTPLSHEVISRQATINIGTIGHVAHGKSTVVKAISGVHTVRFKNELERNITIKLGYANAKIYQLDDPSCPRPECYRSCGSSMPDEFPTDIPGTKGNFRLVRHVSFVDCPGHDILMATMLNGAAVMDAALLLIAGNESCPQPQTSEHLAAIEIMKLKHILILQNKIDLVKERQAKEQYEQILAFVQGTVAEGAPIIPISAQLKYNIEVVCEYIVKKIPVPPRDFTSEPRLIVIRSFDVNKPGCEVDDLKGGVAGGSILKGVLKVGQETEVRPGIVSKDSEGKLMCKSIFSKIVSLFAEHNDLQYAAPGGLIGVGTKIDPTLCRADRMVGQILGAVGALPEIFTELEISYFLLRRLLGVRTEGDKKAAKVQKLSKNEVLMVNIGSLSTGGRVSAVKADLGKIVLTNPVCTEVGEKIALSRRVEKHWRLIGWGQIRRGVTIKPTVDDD
UniProt Q15048: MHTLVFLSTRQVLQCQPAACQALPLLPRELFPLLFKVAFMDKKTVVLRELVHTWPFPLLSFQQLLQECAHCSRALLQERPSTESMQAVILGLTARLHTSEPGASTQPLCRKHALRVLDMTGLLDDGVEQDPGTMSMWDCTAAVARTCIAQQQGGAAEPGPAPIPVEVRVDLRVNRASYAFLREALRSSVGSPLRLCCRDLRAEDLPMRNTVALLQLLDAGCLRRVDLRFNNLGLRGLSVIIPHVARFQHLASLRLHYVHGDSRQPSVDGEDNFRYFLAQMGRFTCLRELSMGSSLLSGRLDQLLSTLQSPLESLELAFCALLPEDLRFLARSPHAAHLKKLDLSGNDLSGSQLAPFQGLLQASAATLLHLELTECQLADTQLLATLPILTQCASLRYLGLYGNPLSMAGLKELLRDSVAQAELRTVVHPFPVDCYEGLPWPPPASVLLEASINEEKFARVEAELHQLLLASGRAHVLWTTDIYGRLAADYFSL
UniProt Q15459: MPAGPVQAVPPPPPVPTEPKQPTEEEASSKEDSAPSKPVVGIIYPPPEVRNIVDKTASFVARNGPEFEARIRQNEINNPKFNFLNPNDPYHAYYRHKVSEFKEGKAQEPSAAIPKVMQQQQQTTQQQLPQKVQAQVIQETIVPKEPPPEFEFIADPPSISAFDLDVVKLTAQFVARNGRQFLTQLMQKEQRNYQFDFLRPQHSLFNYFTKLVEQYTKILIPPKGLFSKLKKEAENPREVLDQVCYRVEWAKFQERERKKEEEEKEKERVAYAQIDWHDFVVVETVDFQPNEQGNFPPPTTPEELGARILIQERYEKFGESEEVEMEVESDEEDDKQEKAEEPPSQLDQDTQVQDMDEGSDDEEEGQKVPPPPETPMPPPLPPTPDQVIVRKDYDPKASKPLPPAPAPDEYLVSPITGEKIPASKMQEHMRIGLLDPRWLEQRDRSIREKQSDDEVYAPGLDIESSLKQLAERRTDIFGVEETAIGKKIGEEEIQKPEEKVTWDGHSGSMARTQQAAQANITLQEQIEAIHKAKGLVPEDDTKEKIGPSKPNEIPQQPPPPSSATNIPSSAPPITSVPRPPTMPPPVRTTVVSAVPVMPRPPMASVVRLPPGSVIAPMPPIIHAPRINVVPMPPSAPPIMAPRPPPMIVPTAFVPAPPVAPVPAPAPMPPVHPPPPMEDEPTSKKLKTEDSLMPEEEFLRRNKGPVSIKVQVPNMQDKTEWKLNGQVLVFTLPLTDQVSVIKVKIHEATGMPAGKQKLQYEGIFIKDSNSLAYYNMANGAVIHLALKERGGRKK

compound: Cc1nc(Nc2ncc(C(=O)Nc3c(C)cccc3Cl)s2)cc(N2CCN(CCO)CC2)n1 [dasatinib]; assay: log2 fold change of tryptic peptide abundance, ligand vs vehicle (limited proteolysis) (log2 ratio); higher = more trypsin-susceptible (destabilized); conditions: ligand concentration: 5 uM; sample: K562 cleared lysate

| Target | log2 fold change |
| --- | --- |
| PFKFB4 (peptide sequence: DSDEATEDFMR, peptide start residue: 183) (UniProt Q16877) | 0.126 |
| TTF1 (peptide sequence: HSHEIFR, peptide start residue: 32) (UniProt Q15361) | -0.408 |
| QPRT (peptide sequence: YGLLVGGAASHR, peptide start residue: 150) (UniProt Q15274) | -0.0984 |
| UniProt Q2VIR3 (peptide sequence: HILILQNKIDLVK, peptide start residue: 184) | 0.758 |
| HAGH (peptide sequence: HVEPGNAAIR, peptide start residue: 233) (UniProt Q16775) | 0.0113 |
| LRRC14 (peptide sequence: MHTLVFLSTR, peptide start residue: 1) (UniProt Q15048) | 0.185 |
| SF3A1 (peptide sequence: LKTEDSLMPEEEFLR, peptide start residue: 685) (UniProt Q15459) | -0.155 |

Some of the entries so far, bar-delimited.
Target | log2 fold change
HAGH (peptide sequence: HVEPGNAAIR, peptide start residue: 233) (UniProt Q16775) | 0.0113
LRRC14 (peptide sequence: MHTLVFLSTR, peptide start residue: 1) (UniProt Q15048) | 0.185
